Data published in PubChem BioAssay AID1347426 (Functional Genomics Laboratory (NCATS/FGL), 2020).
Among all 31,000 sequences or so, about 1,400 (4.5%) were called active.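 The calls were made as follows: active = median seed-adjusted z-score above 1 or below -1; inactive = the rest.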 The list shows a part of the results.

Assay: Novel Modifiers of Survival Motor Neuron (SMN) Protein: Gene Identification via Genome-wide siRNA Screen;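 also: luminescence tracks full-length SMN protein made from the SMN2 reporter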
Conditions: HEK293T SMN2-luciferase reporter, siRNA knockdown, 72 h; actives lie on both sides
How it was run: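 HEK293T cells stably expressing an SMN2 splicing/cDNA-luciferase reporter were reverse-transfected with a druggable-genome siRNA library and read by luminescence at 72 hours; hits defined by MAD score above 1.0 or below -1.0.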
For CUUUAAAGAUUGGAAUAAUTT against LOC730394, the median seed-adjusted z-score was inactive: -0.226.
In the case of GAUCUUCACUAAUCGAAGATT against VLDLR, the median seed-adjusted z-score is reported as inactive: 0.0487.
In the case of CACAAUGUCUUCAACCUGATT against AMIGO1, the median seed-adjusted z-score is reported as inactive: 0.175.
With GGCUUAUGGAGAUAUGAAUTT against PPFIA2 the median seed-adjusted z-score was inactive: 0.176.
In the case of GCAGUAAGCCCAGAUAGCATT against ZNF808, the median seed-adjusted z-score is reported as inactive: 0.138.
With GAACUUUCCUGUUACCUUUTT against CD81 the median seed-adjusted z-score was inactive: 0.
For GCUCAUCGCUCACAACCAATT against ERBB2, the median seed-adjusted z-score was inactive: 0.158.
For CCGGUCAAGUGAACAAGUUTT against TTLL11, the median seed-adjusted z-score was inactive: 0.00825.
In the case of GUUCAACACUUCAAGGUCATT against GRAP2, the median seed-adjusted z-score is reported as inactive: 0.296.
With GCACAAGACCAGUUGCACATT against BBS4 the median seed-adjusted z-score was inactive: -0.0339.
For GGACUUUGAUGAGUGCUAUTT against ACPP, the median seed-adjusted z-score was inactive: 0.311.
In the case of GGGCUGCACCAAAGCCUAUTT against KLF14, the median seed-adjusted z-score is reported as inactive: 0.0241.
With GUAUGAUUGGAACUGCUGATT against HIBADH the median seed-adjusted z-score was inactive: 0.234.
In the case of CACAUGCAAUGUAAUCUUATT against SNX19, the median seed-adjusted z-score is reported as inactive: 0.67.
With CCAUCGCAGUAUAUGAGGATT against SORCS1 the median seed-adjusted z-score was inactive: -0.123.
For CCUCAAUGAUGAGCGGGUATT against CST2, the median seed-adjusted z-score was inactive: -0.411.
With CUACUACAGUGACACGAAATT against ROS1 the median seed-adjusted z-score was inactive: -0.0561.
In the case of CGACAAUGUUAAGUUCAUATT against SULT6B1, the median seed-adjusted z-score is reported as inactive: 0.
In the case of GACUGAGAGUUCAACCGAATT against MATR3, the median seed-adjusted z-score is reported as inactive: -0.259.
With GAAUACGCCUUGAUAUUCATT against PIGR the median seed-adjusted z-score was inactive: -0.35.
For GGAUGAAGCUCUGAGCUAUTT against ALG5, the median seed-adjusted z-score was inactive: 0.286.
In the case of GAGUGAAACAGGAUAAGAUTT against ST3GAL1, the median seed-adjusted z-score is reported as inactive: 0.255.
With GGACAACAGUCGGUCGAAUTT against ANP32C the median seed-adjusted z-score was inactive: -0.421.
With CACGUGCUCUCUACGGUUATT against GPR116 the median seed-adjusted z-score was inactive: 0.
In the case of GCGAAUUCAUAAGUCCAUUTT against MTMR9, the median seed-adjusted z-score is reported as inactive: 0.133.
With GCACCAAUUCUAUAGGCAUTT against PTPRA the median seed-adjusted z-score was inactive: -0.438.
With CUCCAGGAGUGAUCCAAAATT against FOXN3 the median seed-adjusted z-score was inactive: -0.636.
With GCACCAUAGAUGUUAAAGATT against CETN2 the median seed-adjusted z-score was inactive: -0.0139.
With CAGCGGCUACGAGUACUAATT against TCEB3 the median seed-adjusted z-score was inactive: 0.232.
With CCCUAGAACUGGAUCAUAATT against DNAJC7 the median seed-adjusted z-score was inactive: 0.268.
With GGGAUGAUUCAGACAAACATT against ZC3HAV1 the median seed-adjusted z-score was inactive: 0.522.
For GCUUAAGACGAAGCAAAAATT against KIF22, the median seed-adjusted z-score was inactive: 0.283.
With CAAAUGUUGUGAAGAAGUATT against GNGT1 the median seed-adjusted z-score was inactive: -0.0382.
With GCUUGUUGAUGGACAAGAATT against UBA3 the median seed-adjusted z-score was inactive: 0.605.
For GUAGCAUACCCAUCUAUAATT against NAB1, the median seed-adjusted z-score was inactive: -0.67.
In the case of GGCUAAUCCUUUUCGAAUATT against DGKE, the median seed-adjusted z-score is reported as inactive: -0.0589.
For GGAAGUGAACUUUACAUCUTT against TPX2, the median seed-adjusted z-score was inactive: -0.564.
In the case of GCGACUCGGUAGUCCAUUATT against EGR3, the median seed-adjusted z-score is reported as inactive: -0.232.
In the case of GGUUAAUAGGUCAAAUUGUTT against TUBA1A, the median seed-adjusted z-score is reported as inactive: 0.284.
With GGGUGAAAAAGAUCCGUGATT against PLCG1 the median seed-adjusted z-score was inactive: -0.336.
In the case of GAAUUGACUUCUUGUCUAATT against RAB41, the median seed-adjusted z-score is reported as inactive: -0.534.
With GGAUCCUCGAUACAGCACATT against MIOX the median seed-adjusted z-score was inactive: 0.14.
In the case of GUAUGGACCUCAUUCCGUUTT against LMLN, the median seed-adjusted z-score is reported as inactive: 0.
With CCAUGUCACCGGCAAGUGUTT against SCARF2 the median seed-adjusted z-score was inactive: 0.
With CACCGACAAUAUAAAGGAATT against SLC25A32 the median seed-adjusted z-score was inactive: -0.299.
For GGGUCACAACCAAAUCAAATT against ZYX, the median seed-adjusted z-score was inactive: 0.273.
With CGCUGUCCAGAAAAACGGATT against DMRT3 the median seed-adjusted z-score was inactive: 0.
In the case of CGACCCAAAUUUGACAUGATT against ILK, the median seed-adjusted z-score is reported as inactive: -0.231.
For CAGUUACUCUAACGUAUAATT against SI, the median seed-adjusted z-score was inactive: 0.
For GGACCUAUCUAGGACAUCUTT against GPR64, the median seed-adjusted z-score was inactive: 0.527.
With GGAAAUGACAAAUCUAACATT against AVIL the median seed-adjusted z-score was inactive: -0.127.
With GAAGGUUCAUGAAUCUCAATT against ZIC3 the median seed-adjusted z-score was inactive: -0.183.
For GGUUAGAAGUCAUUGUAUATT against NEUROG2, the median seed-adjusted z-score was inactive: -0.366.
For CCAUUUGACCAACCAAUGATT against PCTK2, the median seed-adjusted z-score was inactive: -0.497.
In the case of CAGCUAGCUUGAAUGCUAATT against RNF130, the median seed-adjusted z-score is reported as inactive: -0.21.
With CUAUCGGAUCCAAACCUAUTT against PARN the median seed-adjusted z-score was inactive: -0.0061.
For AGGACAUCUUCGUACAUGUTT against CSDC2, the median seed-adjusted z-score was inactive: -0.321.
For AUGCCAAGCUGGCCUCAGATT against KRT33A, the median seed-adjusted z-score was inactive: -0.107.
In the case of UGAGAAUAGUUACAGCAAATT against NRCAM, the median seed-adjusted z-score is reported as inactive: -0.0304.
In the case of GCCUUAUGUUGAUAUACUUTT against ADK, the median seed-adjusted z-score is reported as inactive: 0.198.
With GAACACUCUAUGUCUAAUATT against MYNN the median seed-adjusted z-score was inactive: 0.0702.
With GGCCUUUGUUCGCAGCUAUTT against ZNF404 the median seed-adjusted z-score was inactive: 0.574.
For GGACUUUGCUGCUGAGGUUTT against YARS, the median seed-adjusted z-score was inactive: 0.0197.
For CGGCUAUUUGCAAAGCAGATT against SRD5A1, the median seed-adjusted z-score was inactive: 0.0945.
For GGACGAUGUCUACAGCCUATT against SIN3B, the median seed-adjusted z-score was inactive: 0.509.
For CCUAAUACAUGCGAAGUGATT against HS3ST5, the median seed-adjusted z-score was inactive: -0.725.
For GCAGUCCCAUGAUCACCAUTT against BEST1, the median seed-adjusted z-score was inactive: -0.322.
For GCUGCUCUACGAAGACAUUTT against GPR175, the median seed-adjusted z-score was inactive: 0.245.
For GAGUCACAAUCGCAUGAAATT against FKBP9, the median seed-adjusted z-score was inactive: 0.359.
With GGAAUAACCUCUUGCAGCATT against HAS1 the median seed-adjusted z-score was inactive: -0.416.
For CGUAUAGUCAAAGCUCAAATT against ZNF24, the median seed-adjusted z-score was inactive: 0.388.
For GCAUAGACUUGAAGGUACATT against SPINT1, the median seed-adjusted z-score was inactive: 0.0172.
For GGACAGCAAAGACCGCGUATT against BAHCC1, the median seed-adjusted z-score was inactive: 0.
In the case of AGUGUCUACUGUGAGAAUATT against TRAF4, the median seed-adjusted z-score is reported as active: -1.16.
With GAGUUCUGCCCGUUCCACATT against GNPTG the median seed-adjusted z-score was inactive: -0.401.
With GGACUUUCUGGAUAUCAAUTT against ATP6V1B1 the median seed-adjusted z-score was inactive: 0.38.
With CUCCAAGGCCGACUCCUAATT against B3GAT1 the median seed-adjusted z-score was inactive: 0.503.
With GGACUCUUGUUAACAGUAATT against S100B the median seed-adjusted z-score was inactive: 0.862.
With GGGUACACGUGAGAACUCATT against ZNF177 the median seed-adjusted z-score was inactive: 0.363.
For GGGCAUUUGGUGAAGAUCATT against MYLK2, the median seed-adjusted z-score was inactive: -0.0498.
For CACGCUCCAUCGCUCAGUATT against VTN, the median seed-adjusted z-score was inactive: -0.435.
For GGCUGAUGUAAUCUCUAAATT against SLC9A8, the median seed-adjusted z-score was inactive: 0.367.
For GGCUACAAAUGUUCAUCGATT against LRP6, the median seed-adjusted z-score was inactive: -0.116.
In the case of CACUAAGAGAAAAUCUGAATT against GALNT13, the median seed-adjusted z-score is reported as inactive: -0.0149.
In the case of CUGUUUACAUGACCUAUUUTT against MAFG, the median seed-adjusted z-score is reported as inactive: 0.
With GCAUGUUGAUUCUCGGCGATT against TDRD9 the median seed-adjusted z-score was inactive: 0.0754.
With CAACAAGUGUCUAAAUGUUTT against GNG11 the median seed-adjusted z-score was inactive: 0.00609.
In the case of GAAUCUCUAUACAAAUGAATT against CSNK1G2, the median seed-adjusted z-score is reported as inactive: 0.511.
For GGACAGCUAUGACUCGGAUTT against DOC2A, the median seed-adjusted z-score was inactive: 0.299.
With AGAGAGAUUACGAACUGAATT against FLOT1 the median seed-adjusted z-score was inactive: -0.685.
With CAGUAAGUCUAAUCUCAUUTT against ZNF671 the median seed-adjusted z-score was inactive: -0.0551.
For CUAUGUUCGAUUUAUUGAATT against ADSS, the median seed-adjusted z-score was inactive: -0.272.
With CAACAAGAUUUCUACGUUATT against PKD1 the median seed-adjusted z-score was inactive: -0.228.
In the case of GUAUAUUUUGGGAAUCUUUTT against CEBPB, the median seed-adjusted z-score is reported as inactive: -0.748.
With CAAGAGUACAAAUUCAAGATT against PRPSAP2 the median seed-adjusted z-score was inactive: 0.329.
In the case of GUUUCUACCCGGCUACGUATT against DHCR7, the median seed-adjusted z-score is reported as inactive: 0.00451.
For GUCUCUAUCUACAAUAUCATT against PCDHGA8, the median seed-adjusted z-score was inactive: 0.00691.
For CCUUGACCUAUGACAUACATT against GRIK3, the median seed-adjusted z-score was inactive: 0.128.
In the case of GCCUCUCAGAGAACUACGATT against LRRC33, the median seed-adjusted z-score is reported as inactive: -0.194.
For CGAAUCCUACAUCCACCAATT against PRKCDBP, the median seed-adjusted z-score was inactive: 0.244.
In the case of GCUGAUACCUUCUACCGUATT against GDPD2, the median seed-adjusted z-score is reported as inactive: -0.0868.
With GUCUAACCGGUCUCAAUAATT against PGAM1 the median seed-adjusted z-score was inactive: -0.234.
In the case of CAUCAUUACGAUUAGCCUATT against ARFGAP3, the median seed-adjusted z-score is reported as inactive: 0.00412.
With UCAUCAAGCUUGCAGAGCATT against CTRC the median seed-adjusted z-score was inactive: -0.104.
For CUCACUUACUCGUACACGATT against IL1R2, the median seed-adjusted z-score was inactive: 0.429.
For UCAUGGGCAUAUUCUCUAATT against FGD3, the median seed-adjusted z-score was inactive: 0.245.
For GACAUACAGUGAUUUGUCATT against ZIM2, the median seed-adjusted z-score was inactive: -0.565.
